Data as given in PubChem BioAssay AID652259 (Drosophila RNAi Screening Center, 2013)

Aim: 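Knock-downs that push a Wingless-driven reporter up or down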 (primary screen)
System: Drosophila clone 8 imaginal disc epithelial cells
Reagents: long dsRNA against Drosophila genes
Treatment: pathway stimulated by co-transfected Wingless expression plasmid
Measurement: 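Firefly luciferase from a tcf-site Wingless reporter, measured alongside co-transfected Renilla luciferase that tracks transfection; pathway stimulated by a Wingless plasmid; the firefly-to-Renilla ratio is not deposited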
Scale: firefly reporter light: higher = more Wg reporter light, before normalisation; Renilla control light: higher = more transfected or surviving cells
Rule for the call: 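a knock-down is a candidate when at least two out of four statistical tests show it departing from its plate mean; one test alone signals a weak candidate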
Calls: active = candidate regulator (raises or lowers reporter); inactive = not a candidate
In all, the deposit lists about 22,000 reagents; shown is a random part of those with a known target gene and a result. Over the whole deposit, 233 (1.1%) are marked active. 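Light values are raw, unnormalised plate reads; the ratio scores behind the reporter calls were not deposited.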 Unmarked entries are inactive. Not stated in the record: the amount of reagent, the time to read-out, the dose of the treatment.

no.	Target gene	DRSC id	reporter change call, replicate 1	firefly reporter light, replicate 1	firefly reporter light, replicate 2	Renilla control light, replicate 1	Renilla control light, replicate 2
1	boil	DRSC17872		22842		9201	
2	CG9692	DRSC11091		8309		2967	
3	IPIP	DRSC02164		15997		8320	
4	Sfmbt	DRSC02552		8851		3025	
5	vret	DRSC15640		2434	9065	1524	2496
6	Ugt37C2	DRSC02247		1617	4586	807	2818
7	CG4363	DRSC04465		2264	9370	589	2546
8	Tob	DRSC20294		2070	5632	599	2019
9	Cpr47Eg	DRSC07330		4681		2269	
10	CG3748	DRSC02716		2923	5425	837	2912
11	Swt1	DRSC20028		2436	5232	902	1936
12	ACC	DRSC06059		1520	4672	276	1080
13	ACC	DRSC07249		7297		2066	
14	CG13305	DRSC09975		1619	5366	896	1479
15	Proc	DRSC03009		1795	6272	169	857
16	Hey	DRSC07440		2256	4884	263	477
17	CG9932	DRSC03275	Wg reporter activity lowered	1178	3528	994	1857
18	CG1724	DRSC20548		14273		9930	
19	fend	DRSC17601		5579		1575	
20	fend	DRSC17867		19190		16393	
21	CG7140	DRSC11799		15757		4216	
22	CG5381	DRSC02852		2135	8893	1116	4005
23	CG30460	DRSC06559		6690		2921	
24	CG30460	DRSC06560	Wg reporter activity raised	7126		518	
25	CG12134	DRSC06109		3177	7984	467	3153

Targets listed so far whose target name starts with S or s (2):
Target gene	DRSC id	reporter change call, replicate 1	firefly reporter light, replicate 1	firefly reporter light, replicate 2	Renilla control light, replicate 1	Renilla control light, replicate 2
Sfmbt	DRSC02552		8851		3025	
Swt1	DRSC20028		2436	5232	902	1936

More entries follow:
no.	Target gene	DRSC id	reporter change call, replicate 1	firefly reporter light, replicate 1	firefly reporter light, replicate 2	Renilla control light, replicate 1	Renilla control light, replicate 2
26	lncRNA:CR30009	DRSC22952		5.67e5	6.01e5	2.28e5	1.87e5
27	CG14668	DRSC12254		11649		3522	
28	CG8003	DRSC10946		4524		2248	
29	CG16749	DRSC15146		16359		3021	
30	Gr64f	DRSC08447		3786		2487	
31	CG2070	DRSC06814		2265	6973	746	2252
32	lncRNA:CR32385	DRSC22966		4.76e5	5.28e5	2.50e5	2.26e5
33	Asph	DRSC06783		4789		2592	
34	Asph	DRSC07171		9072		3126	
35	CG6073	DRSC15962		3929	10124	1639	3745
36	CG6073	DRSC22742		3.95e5	3.83e5	2.02e5	1.62e5
37	dgt2	DRSC02548		3896	5717	1440	2932
38	CG13884	DRSC08354	Wg reporter activity lowered	3469		3174	
39	Ide	DRSC11867		4341		1794	
40	mRpS25	DRSC19598		26516		15349	
41	CG8319	DRSC16407		9170		2353	
42	step	DRSC03694		2215	6439	789	2775
43	step	DRSC03699		2907	10498	1146	4519
44	Lk	DRSC10022		10891		4147	
45	CG32631	DRSC19768		4721	12509	1776	5001
46	Fic	DRSC03247		13040		5488	
47	Mgat4a	DRSC09326		3501	7.47e5	2288	3.51e5
48	Mgat4a	DRSC11070		6147		3209	
49	l(1)G0469	DRSC19412		4103	10832	1569	3833
50	l(1)G0469	DRSC19462		17539		7021	
51	Ebp	DRSC04048		15019		4176	
52	yip7	DRSC11410		1701	7860	723	2400
53	Snx16	DRSC06984		4817		2029	
54	Nmdmc	DRSC16760		6585		2437	
55	CG15572	DRSC18060		24837		10064	
56	CG18746	DRSC15383		9398		2100	
57	MED1	DRSC11808		7834		3607	
58	CG32986	DRSC02509		4268	6327	1382	2886
59	CG5180	DRSC15731		17687		4264	
60	CR12798	DRSC21078		18400		8320	
61	RpS17	DRSC11271		4816		2547	
62	salto	DRSC06291		6097		2544	
63	Targ3	DRSC11471		4193		2083	
64	CG13369	DRSC18481		17420		13988	
65	bif	DRSC18901		3381		966	
66	bif	DRSC20313		1675	4465	753	2242
67	CG15721	DRSC19688		29990		13126	
68	CG43318	DRSC14999		15016		3728	
69	CG4704	DRSC15628		16409		15042	
70	thetaTry	DRSC07705		5506		2700	
71	yl	DRSC20387		19865		9642	
72	RpL39	DRSC04651		4551	9014	632	2448
73	CG34015	DRSC19140		3480		900	
